# Assay results: the supplement of paper PMC7858590
# “And” between values parts separate entries of the source, which are not always exact repeats. Equal values may be shown once. ± gives the standard deviation of the averaged measurements. Over roughly 3,800 compounds, “cell shape (eccentricity) Z-score vs DMSO control” has its median near 1.1; the lowest 2% begin near -4.7. This is one part of the list.
# System: human monocyte-derived macrophages (M0)
# Test: cell shape (eccentricity) Z-score vs DMSO control; higher = more elongated, M2-like morphology
# Conditions: 20 µM; 24 h; macrophage state: M0 (M-CSF)
row,Structure (SMILES),cell shape (Z-score)
1,CO[C@H]1C[C@@H]2CC[C@@H](C)[C@@](O)(O2)C(=O)C(=O)N2CCCC[C@H]2C(=O)O[C@H]([C@H](C)C[C@@H]2CC[C@@H](OC(=O)C(C)(CO)CO)[C@H](OC)C2)CC(=O)[C@H](C)/C=C(\C)[C@@H](O)[C@@H](OC)C(=O)[C@H](C)C[C@H](C)/C=C/C=C/C=C/1C,2.12 ± 1.8
2,COc1ccc(CCC(=O)O)c(O)c1,0.196
3,COc1cc2c(N3CCN(C(=O)Nc4ccc(OC(C)C)cc4)CC3)ncnc2cc1OCCCN1CCCCC1,0.0806
4,Clc1ccc(CO/N=C(\Cn2ccnc2)c2ccc(Cl)cc2Cl)c(Cl)c1,2
5,OCc1ccc(-c2ccc(-c3ccc(CO)s3)o2)s1,-3.3 and -5.19
6,CCc1cc(C(C)=O)c(O)cc1OCCCCCC(C)(C)c1nnn[nH]1,1.49
7,C[C@@H]1O[C@@H](O[C@H]2[C@H](OC(=O)[C@]34CCC(C)(C)C[C@H]3C3=CCC5[C@@]6(C)C[C@H](O)[C@H](O[C@@H]7O[C@H](CO)[C@@H](O)[C@H](O)[C@H]7O)[C@@](C)(CO)C6[C@H](O)C[C@@]5(C)[C@]3(C)CC4)OC[C@H](O)[C@@H]2O)[C@H](O)[C@H](O)[C@H]1O[C@@H]1OC[C@@H](O)[C@H](O[C@@H]2OC[C@](O)(CO)[C@H]2O)[C@H]1O (some centres undefined),-6.49
8,COC(=O)c1csc(C(=O)c2c[nH]c3ccccc23)n1,-0.32
9,C/C=C(\C)C(=O)OC(/C=C/C(O)C(C)O)C1C=CC(=O)O1 (centres undefined),0.569 ± 2.1
10,CCCCNc1cc(C(=O)O)cc(S(N)(=O)=O)c1Oc1ccccc1,-1.21
11,CC1CC(=O)C2C(O)(C1)CC(O)C13OC1c1c(O)cccc1C(=O)C23O (centres undefined),-0.193
12,C=CCc1cccc(C=NNC(=O)CN2CCN(Cc3ccccc3)CC2)c1O,-1.18
13,COC(=O)c1cc(Cl)ccc1OC,1.55
14,C=C[C@]1(C)C=C2CCC3C(C)(CCC[C@@]3(C)C(=O)O)C2CC1 (some centres undefined),2.71
15,CC1OC(OCC2OC(OCC3(C)C(O)CCC4(C)C3CCC3(C)C4CCC4C5=CC(C)(C)CCC5(C(=O)O)CCC43C)C(O)C(O)C2O)C(O)C(O)C1O (centres undefined),-0.65
16,CCCCCCCCCc1ccc(OCCOCCOCCOCCOCCOCCOCCOCCOCCO)cc1,7.4
17,CC[C@H]1C(=O)CC2C3CCC4C[C@@H](O)[C@]5(O)C[C@]4(CO5)C3CC[C@@]21C (some centres undefined),1.8 ± 0.49
18,Cc1nn(C)c2nc(NNC(=O)Nc3cc(Cl)nc(Cl)c3)cc(C(C)C)c12,10.4
19,CC1(C)CC[C@]2(C(=O)O[C@@H]3O[C@H](CO)[C@@H](O)[C@H](O)[C@H]3O)CC[C@]3(C)C(=CCC4[C@@]5(C)CC[C@H](O[C@@H]6O[C@H](C(=O)O)[C@@H](O[C@@H]7OC[C@H](O)[C@H](O)[C@H]7O)[C@H](O)[C@H]6O)C(C)(C)C5CC[C@]43C)C2C1 (some centres undefined),-0.454
20,COc1ccc(-c2oc3cc(OC)ccc3c2C(=O)c2ccc(C#N)cc2)cc1,0.42
21,CN[C@@H](C)C(=O)N[C@@H]1CC(=O)N2[C@H](CC[C@H]2C(=O)NC(c2ccccc2)c2ccccc2)CN(C(=O)CC(C)C)C1,3.27
22,COC(=O)C1=CO[C@@H](O[C@@H]2O[C@H](CO)[C@@H](O)[C@H](O)[C@H]2O)[C@@H]2[C@@H](C)[C@@H](O)[C@@H](OC(=O)/C=C/c3ccc(O)c(O)c3)[C@H]12,0.934
23,COc1ccc2[nH]c(S(=O)Cc3ncc(C)c(OC)c3C)nc2c1 (centres undefined),0.657
24,COc1cc(OC)c(C(C)=O)c(O)c1C,1.58
25,COc1ccc(-c2cc(=O)c3c(O)cc(O)cc3o2)cc1,4.21
26,CN1C(C)(C)CCCC1(C)C,1.3
27,CC1CCC2(C(=O)OC3OC(CO)C(O)C(O)C3O)CCC3(C(=O)O)C(=CCC4C5(C)CCC(O)C(C)(C)C5CCC43C)C2C1C (centres undefined),-0.295 ± 2.7

row,Structure (SMILES),cell shape (Z-score)
1,O=C1NC2CCc3nc4ccccc4c(=O)n3C2=Nc2ccccc21 (centres undefined),2.01 ± 1.9
2,C=C[C@@]12COC(=O)C(=C)[C@@H]1[C@@H](O)[C@H](C(=C)C(=O)OC)[C@@H](O)C2,0.752 ± 1.1
3,COc1cc(/C=C\C(=O)O)cc(OC)c1OC,3.06
4,COc1cc2cc(Oc3ccc4ccc(=O)oc4c3)c(=O)oc2cc1O,2.63
5,CN1CCC(=C2c3ccccc3Sc3ccccc32)CC1,-2.28
6,NC(Cc1ccc(F)cc1)C(=O)O (centres undefined),1.9
7,N#C/C(=C\c1ccc(-c2cc(Cl)ccc2Cl)o1)C(=O)Nc1cccc2ncccc12,3.94
8,COc1c2ccoc2c(OC)c2oc(=O)ccc12,3.27
9,COc1cc(C2c3c(cc(OC)c(O)c3OC)CC(CO)C2CO[C@@H]2O[C@H](CO)[C@@H](O)[C@H](O)[C@H]2O)cc(OC)c1O (some centres undefined),-0.312
10,S=C(NCCCc1c[nH]cn1)NCCCN(Cc1ccc(Cl)c(Cl)c1)c1ccc(Br)cn1,-2.3
11,COc1ccc(Cn2ccc3ccc(C(=O)NO)cc32)cc1,2.12
12,CC(Nc1nc(N2CCCC2)nc2ccccc12)c1ccccc1 (centres undefined),-7.72
13,C=C(CC/C=C(\C)C(=O)O)C1(O)CC=C(C)CC1 (centres undefined),1
14,Cc1cc(O)cc2c(=O)oc(CC(C)O)cc12 (centres undefined),1.58
15,O=C(NC(Cc1cc(=O)[nH]c2ccccc12)C(=O)O)c1ccc(Cl)cc1 (centres undefined),2.97
16,Cc1ccc(-n2nc(C(C)(C)C)cc2NC(=O)Nc2ccc(OCCN3CCOCC3)c3ccccc23)cc1,0.227
17,C=C1C[C@@]23CCC4[C@](C)(C(=O)O)CCC[C@@]4(C)[C@]2(O)CCC1C3 (some centres undefined),1.15
18,O=C1NCCN1c1ncc([N+](=O)[O-])s1,2.77
19,CC(=O)Nc1ccccc1,0.211
20,O=C(O)COc1ccc(OCCNC[C@@H](O)COc2ccccc2)cc1,0.185
21,CC1(C)O[C@@H]2CC3C4CCC5=CC(=O)C=C[C@]5(C)[C@@]4(F)[C@@H](O)C[C@]3(C)[C@]2(C(=O)CO)O1 (some centres undefined),-2.57
22,C#C[C@]1(O)CCC2C3CCc4cc(O)ccc4C3CC[C@@]21C (some centres undefined),0.967
23,COc1ccc(NC(=O)c2ccc(-c3ccc(-c4noc(C)n4)cc3C)cc2)cc1OCCN(C)C,-2.7
24,COc1ccc2[nH]c([S@@](=O)Cc3ncc(C)c(OC)c3C)nc2c1,1.92
25,Cc1ccc(O)c(N=Nc2ccccc2)n1,-7.89
26,CC(C)(C)NC[C@@H](O)COc1nsnc1N1CCOCC1,-0.952
27,O=C1CC2(CCCC2)CC(=O)N1CCCCN1CCN(c2ncccn2)CC1,1.42

# Some of the entries so far, tab-delimited:
row	Structure (SMILES)	cell shape (Z-score)
2	COc1ccc(CCC(=O)O)c(O)c1	0.196
27	CC1CCC2(C(=O)OC3OC(CO)C(O)C(O)C3O)CCC3(C(=O)O)C(=CCC4C5(C)CCC(O)C(C)(C)C5CCC43C)C2C1C (centres undefined)	-0.295 ± 2.7
12	CC(Nc1nc(N2CCCC2)nc2ccccc12)c1ccccc1 (centres undefined)	-7.72
